PubChem BioAssay AID1259298 | Sanger Institute, 2017
The deposit covers 794 reagents; this is a random part of them. 20 of them (2.5%) count as active. 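Calls rest only on the knock-down-alone score; drug synergy scores played no part in them.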 No viability above 1 is reported: the scale is capped. Not all columns of the deposit are shown. The record does not give: the amount of reagent, the time to read-out.

- Screen: 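Kinome knock-downs lethal on their own or synergising with anchor drugs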 (primary screen)
- Cell system: HT55 human colorectal cancer cell line
- Reagents: siRNA pool against human genes
- Conditions: anchor drug BYL719 1 µM, cetuximab 5 µg/ml or trametinib 10 nM, or DMSO vehicle alone
- Measurement: 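Mean viability over replicates versus non-targeting pool, a robust z-score without drug, and per-drug synergy scores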
- Reading the numbers: robust z-score, knock-down alone: higher = more cells remaining; low means essential gene; viability vs control pool, no drug: higher = more viable cells
- Active means: 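Essential when the robust z-score for knock-down alone with DMSO is below -3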
- Meaning of the calls: active = essential (knock-down alone); inactive = no change alone

With DAPK2 (death associated protein kinase 2), what was measured?
robust z-score, knock-down alone: 0.58; viability vs control pool, no drug (fraction): 1; Outcome: inactive

For BRD3 (bromodomain containing 3), how do the results read?
robust z-score, knock-down alone: 0.58; viability vs control pool, no drug (fraction): 1; Outcome: inactive

Which result is listed for CSNK1G2 (casein kinase 1 gamma 2)?
robust z-score, knock-down alone: 0.58; viability vs control pool, no drug (fraction): 1; Outcome: inactive

For HK1 (hexokinase 1), what does the deposit list?
robust z-score, knock-down alone: -0.748; viability vs control pool, no drug (fraction): 0.896; Outcome: inactive

With PDGFRA (platelet derived growth factor receptor alpha), what was measured?
robust z-score, knock-down alone: 0.58; viability vs control pool, no drug (fraction): 1; Outcome: inactive

What did the screen give for EPHA2 (EPH receptor A2)?
robust z-score, knock-down alone: 0.58; viability vs control pool, no drug (fraction): 1; Outcome: inactive

With DNMT3A (DNA methyltransferase 3 alpha), what does the deposit list?
robust z-score, knock-down alone: -0.954; viability vs control pool, no drug (fraction): 0.88; Outcome: inactive

For RSKR (ribosomal protein S6 kinase related), what does the deposit list?
robust z-score, knock-down alone: 0.58; viability vs control pool, no drug (fraction): 1; Outcome: inactive

How did the screen score SKAP1 (src kinase associated phosphoprotein 1)?
robust z-score, knock-down alone: 0.58; viability vs control pool, no drug (fraction): 1; Outcome: inactive

For MAP2K5 (mitogen-activated protein kinase kinase 5), how do the results read?
robust z-score, knock-down alone: 0.58; viability vs control pool, no drug (fraction): 1; Outcome: inactive

For GK (glycerol kinase), what was measured?
robust z-score, knock-down alone: 0.58; viability vs control pool, no drug (fraction): 1; Outcome: inactive

For MED12 (mediator complex subunit 12), what was measured?
robust z-score, knock-down alone: 0.563; viability vs control pool, no drug (fraction): 0.999; Outcome: inactive

With CIB2 (calcium and integrin binding family member 2), what does the deposit list?
robust z-score, knock-down alone: 0.58; viability vs control pool, no drug (fraction): 1; Outcome: inactive

With PDK3 (pyruvate dehydrogenase kinase 3), how do the results read?
robust z-score, knock-down alone: 0.575; viability vs control pool, no drug (fraction): 1; Outcome: inactive

For CKS2 (CDC28 protein kinase regulatory subunit 2), how do the results read?
robust z-score, knock-down alone: 0.58; viability vs control pool, no drug (fraction): 1; Outcome: inactive

What is on record for MAP3K4 (mitogen-activated protein kinase kinase kinase 4)?
robust z-score, knock-down alone: -0.0599; viability vs control pool, no drug (fraction): 0.95; Outcome: inactive

How did the screen score ADPGK (ADP dependent glucokinase)?
robust z-score, knock-down alone: -0.423; viability vs control pool, no drug (fraction): 0.922; Outcome: inactive

For STK32C (serine/threonine kinase 32C), how do the results read?
robust z-score, knock-down alone: 0.58; viability vs control pool, no drug (fraction): 1; Outcome: inactive

For GRK6 (G protein-coupled receptor kinase 6), what was measured?
robust z-score, knock-down alone: 0.58; viability vs control pool, no drug (fraction): 1; Outcome: inactive

Which result is listed for FLT1 (fms related receptor tyrosine kinase 1)?
robust z-score, knock-down alone: 0.58; viability vs control pool, no drug (fraction): 1; Outcome: inactive

Which result is listed for MAP3K20 (mitogen-activated protein kinase kinase kinase 20)?
robust z-score, knock-down alone: 0.58; viability vs control pool, no drug (fraction): 1; Outcome: inactive

With IRAK4 (interleukin 1 receptor associated kinase 4), what does the deposit list?
robust z-score, knock-down alone: -0.781; viability vs control pool, no drug (fraction): 0.894; Outcome: inactive

What did the screen give for PLK4 (polo like kinase 4)?
robust z-score, knock-down alone: -2.22; viability vs control pool, no drug (fraction): 0.781; Outcome: inactive

For PDIK1L (PDLIM1 interacting kinase 1 like), how do the results read?
robust z-score, knock-down alone: 0.562; viability vs control pool, no drug (fraction): 0.999; Outcome: inactive

With MAP3K19 (mitogen-activated protein kinase kinase kinase 19), how do the results read?
robust z-score, knock-down alone: -1.28; viability vs control pool, no drug (fraction): 0.854; Outcome: inactive

With CDK13 (cyclin dependent kinase 13), what was measured?
robust z-score, knock-down alone: 0.495; viability vs control pool, no drug (fraction): 0.993; Outcome: inactive

What is on record for PTGS1 (prostaglandin-endoperoxide synthase 1)?
robust z-score, knock-down alone: 0.58; viability vs control pool, no drug (fraction): 1; Outcome: inactive

Which result is listed for NME1 (NME/NM23 nucleoside diphosphate kinase 1)?
robust z-score, knock-down alone: 0.58; viability vs control pool, no drug (fraction): 1; Outcome: inactive

Single entries from above.
Value of PTGS1 (prostaglandin-endoperoxide synthase 1) under “Outcome”: inactive
CDK13 (cyclin dependent kinase 13), viability vs control pool, no drug (fraction) = 0.993
NME1 (NME/NM23 nucleoside diphosphate kinase 1), viability vs control pool, no drug (fraction): 1
